Numbering of substitutions follows the chain as printed. In names and notes the source's numbering stands. Results are given in words; binding and its absence hold for the method and conditions named. Binding seen in cells or lysates may run through a third protein. Some results given as binding are weak or reduced against the parent protein; the word gives no strength. Where a sequence is shown, tags or fusion partners need not be part of it.

Holding throughout (experiment): co-IP; Flag-tagged WTAP 1-273 and His-tagged VIRMA 381-1486 co-expressed in HEK 293F cells; whole-cell extracts purified via anti-Flag beads, western blot against the tags
In assay [1] the target is T1, Flag-tagged WTAP^1–273 E196A (human) (UniProt Q15007).
T1 sequence: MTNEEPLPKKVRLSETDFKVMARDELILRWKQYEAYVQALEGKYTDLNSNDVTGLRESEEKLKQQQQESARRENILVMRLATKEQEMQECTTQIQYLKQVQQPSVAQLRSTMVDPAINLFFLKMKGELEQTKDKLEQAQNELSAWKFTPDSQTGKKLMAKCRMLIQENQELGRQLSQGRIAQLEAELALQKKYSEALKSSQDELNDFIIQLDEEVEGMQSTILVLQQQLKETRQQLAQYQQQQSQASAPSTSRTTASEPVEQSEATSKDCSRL

Assay [2] concerns the target T2, Flag-tagged WTAP^1–273 Q182A (human) (UniProt Q15007).
T2 sequence: T1 sequence with Q182A, A196E

In assay [3] the target is T3, Flag-tagged WTAP^1–273 E203A (human) (UniProt Q15007).
T3 sequence: T1 sequence with A196E, E203A

The target in assay [4] is T4, Flag-tagged WTAP^1–273 Q177A (human) (UniProt Q15007).
T4 sequence: T1 sequence with Q177A, A196E

Assay [5] deals with T5, Flag-tagged WTAP^1–273 N205A (human) (UniProt Q15007).
T5 sequence: T1 sequence with A196E, N205A

Assay [6] deals with T6, Flag-tagged WTAP^1–273 E216A (human) (UniProt Q15007).
T6 sequence: T1 sequence with A196E, E216A

For assay [7], the target named is T7, Flag-tagged WTAP^1–273 (human) (UniProt Q15007).
T7 sequence: T1 sequence with A196E

The target in assay [8] is T8, Flag-tagged WTAP^1–273 Q192A (human) (UniProt Q15007).
T8 sequence: T1 sequence with K192A, A196E

B1: His-tagged VIRMA^381–1486 (domain or fragment, UniProt Q69YN4 381-1486)
chain: ASVKLTELLDLYREDRGAKWVTALEEIPSLIIKGLSYLQLKNTKQDSLGQLVDWTMQALNLQVALRQPIALNVRQLKAGTKLVSSLAECGAQGVTGLLQAGVISGLFELLFADHVSSSLKLNAFKALDSVISMTEGMEAFLRGRQNEKSGYQKLLELILLDQTVRVVTAGSAILQKCHFYEVLSEIKRLGDHLAEKTSSLPNHSEPDHDTDAGLERTNPEYENEVEASMDMDLLESSNISEGEIERLINLLEEVFHLMETAPHTMIQQPVKSFPTMARITGPPERDDPYPVLFRYLHSHHFLELVTLLLSIPVTSAHPGVLQATKDVLKFLAQSQKGLLFFMSEYEATNLLIRALCHFYDQDEEEGLQSDGVIDDAFALWLQDSTQTLQCITELFSHFQRCTASEETDHSDLLGTLHNLYLITFNPVGRSAVGHVFSLEKNLQSLITLMEYYSKEALGDSKSKKSVAYNYACILILVVVQSSSDVQMLEQHAASLLKLCKADENNAKLQELGKWLEPLKNLRFEINCIPNLIEYVKQNIDNLMTPEGVGLTTALRVLCNVACPPPPVEGQQKDLKWNLAVIQLFSAEGMDTFIRVLQKLNSILTQPWRLHVNMGTTLHRVTTISMARCTLTLLKTMLTELLRGGSFEFKDMRVPSALVTLHMLLCSIPLSGRLDSDEQKIQNDIIDILLTFTQGVNEKLTISEETLANNTWSLMLKEVLSSILKVPEGFFSGLILLSELLPLPLPMQTTQVIEPHDISVALNTRKLWSMHLHVQAKLLQEIVRSFSGTTCQPIQHMLRRICVQLCDLASPTALLIMRTVLDLIVEDLQSTSEDKEKQYTSQTTRLLALLDALASHKACKLAILHLINGTIKGDERYAEIFQDLLALVRSPGDSVIRQQCVEYVTSILQSLCDQDIALILPSSSEGSISELEQLSNSLPNKELMTSICDCLLATLANSESSYNCLLTCVRTMMFLAEHDYGLFHLKSSLRKNSSALHSLLKRVVSTFSKDTGELASSFLEFMRQILNSDTIGCCGDDNGLMEVEGAHTSRTMSINAAELKQLLQSKEESPENLFLELEKLVLEHSKDDDNLDSLLDSVVGLKQMLES
With B1, the binding result in assay [1], in assay [2], in assay [3], in assay [4], in assay [5] and in assay [6] was “binds” in each case. The binding result in assay [7] and in assay [8] was “binds” each time.

B2: His-tagged VIRMA^381–1486 T660A (domain or fragment, UniProt Q69YN4 381-1486)
chain: B1 chain with T280A
As to B2, in assay [7], the binding entry is “binds”.

B3: His-tagged VIRMA^381–1486 N957A (domain or fragment, UniProt Q69YN4 381-1486)
chain: B1 chain with N577A
Consider B3, for which the binding entry in assay [7] is reported as “binds”.

B4: His-tagged VIRMA^381–1486 N452A (domain or fragment, UniProt Q69YN4 381-1486)
chain: B1 chain with N72A
Consider B4, for which, in assay [7], the binding result is on record as “binds”.

B5: His-tagged VIRMA^381–1486 S1025A (domain or fragment, UniProt Q69YN4 381-1486)
chain: B1 chain with S645A
With B5, the binding entry in assay [7] is “binds”.

(Values after publication PMC9715571 (Cell Research, 2022).)
